The target of this assay is DNA gyrase (Escherichia coli, UniProt P0AES4+P0AES6). Description: Inhibitory concentration in supercoiling inhibition Escherichia coli DNA gyrase assay. The conditions noted are these: read-out: I50 (converted). Type of assay: protein-complex assay. The gist of the method: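 Gyrase A and B subunits purified from E. coli H560, each titrated to fully supercoil relaxed Col E1 plasmid (~0.3 μg/mL). Drug in 0.1 N KOH, 40 min at 30 °C, then ATP for 10 min. SDS/proteinase K quench, 1% agarose gel, ethidium stain. Serial dilutions start at 200 μg/mL. I50 is the mean of the initial-inhibition and 100%-inhibition concentrations.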

Amino acid sequences for entries named in this document (tags omitted).
UniProt P0AES4, whole entry, looked up: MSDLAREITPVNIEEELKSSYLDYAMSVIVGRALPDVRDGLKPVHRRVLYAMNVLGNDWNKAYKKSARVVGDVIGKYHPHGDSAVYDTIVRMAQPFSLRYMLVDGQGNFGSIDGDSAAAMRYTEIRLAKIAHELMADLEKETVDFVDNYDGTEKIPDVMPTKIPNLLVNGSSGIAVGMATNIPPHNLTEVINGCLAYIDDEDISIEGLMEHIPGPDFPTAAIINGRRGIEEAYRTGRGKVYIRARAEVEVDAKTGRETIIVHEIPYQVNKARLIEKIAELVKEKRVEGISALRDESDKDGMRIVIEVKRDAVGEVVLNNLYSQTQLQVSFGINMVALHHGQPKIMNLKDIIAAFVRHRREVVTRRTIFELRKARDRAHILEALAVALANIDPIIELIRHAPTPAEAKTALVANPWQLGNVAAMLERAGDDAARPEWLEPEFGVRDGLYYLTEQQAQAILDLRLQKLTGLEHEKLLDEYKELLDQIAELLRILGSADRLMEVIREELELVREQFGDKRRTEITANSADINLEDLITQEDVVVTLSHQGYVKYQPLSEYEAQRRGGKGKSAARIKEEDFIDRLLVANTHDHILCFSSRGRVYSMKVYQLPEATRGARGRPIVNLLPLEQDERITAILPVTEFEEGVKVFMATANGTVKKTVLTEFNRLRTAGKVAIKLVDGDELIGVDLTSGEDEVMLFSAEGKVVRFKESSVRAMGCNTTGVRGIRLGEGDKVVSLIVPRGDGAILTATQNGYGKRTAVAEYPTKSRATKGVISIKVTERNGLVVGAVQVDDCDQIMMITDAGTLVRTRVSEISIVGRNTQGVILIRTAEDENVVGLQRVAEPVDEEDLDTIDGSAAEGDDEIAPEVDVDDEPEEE

Consider `CCn1cc(C(=O)O)c(=O)c2cc(F)c(N3CCN(C)CC3)cc21` [PEFLOXACIN], for which the IC50 was 16.5 µM.

(Values after ChEMBL document CHEMBL1123417, “New structure-activity relationships of the quinolone antibacterials using the target enzyme. The development and application of a DNA gyrase assay” (J Med Chem, 1986).)
